The assay concerns the target T1, 14-3-3 OMEGA:YFP (Arabidopsis thaliana) (UniProt Q01525).
T1 sequence: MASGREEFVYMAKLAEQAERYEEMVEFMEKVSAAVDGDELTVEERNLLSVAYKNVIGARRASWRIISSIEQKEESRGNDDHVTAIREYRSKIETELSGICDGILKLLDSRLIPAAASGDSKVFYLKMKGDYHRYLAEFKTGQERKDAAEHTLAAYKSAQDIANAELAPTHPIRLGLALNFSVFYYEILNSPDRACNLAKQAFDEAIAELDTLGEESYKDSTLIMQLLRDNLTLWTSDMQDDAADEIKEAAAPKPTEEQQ
As to the kind of experiment: co-IP; YFP fusion as bait on GFP-Trap agarose beads from N. benthamiana leaves transiently co-expressing the proteins, extracted 48 h post-infiltration; lysis buffer as for MS; eluted by boiling in SDS-loading buffer; blots with anti-GFP and anti-HA.

Results are given in words; binding and its absence hold for the method and conditions named. Binding seen in cells or lysates may run through a third protein. Some entries that bind do so weakly or less than the wild type. Where a sequence is shown, tags or fusion partners need not be part of it.

B1: 14-3-3 KAPPA:HA (protein, UniProt P48348 1-248)
chain: MATTLSRDQYVYMAKLAEQAERYEEMVQFMEQLVSGATPAGELTVEERNLLSVAYKNVIGSLRAAWRIVSSIEQKEESRKNEEHVSLVKDYRSKVETELSSICSGILRLLDSHLIPSATASESKVFYLKMKGDYHRYLAEFKSGDERKTAAEDTMIAYKAAQDVAVADLAPTHPIRLGLALNFSVFYYEILNSSEKACSMAKQAFEEAIAELDTLGEESYKDSTLIMQLLRDNLTLWTSDMQEQMDEA
As for B1, the binding entry is reported as “binds”.

The values above are taken from PMC8566215.
